Source: PMC3720591
These are yes or no findings as the source states them, for the method shown. Binding seen in cells or lysates may run through a third protein. Some entries that bind do so weakly or less than the wild type. For some of these results: Sequences can lack the tags named with a protein. Each block holds one binder with its values, some of them ahead of it.

Tests used:
[1] = target: T1, human Fas in MCF7-hFAS cells (human), P25445; experiment: co-IP; MCF7-hFAS-CTL and MCF7-hFAS-p45 cells treated with FasL (10 ng/ml) for 0 or 30 min; lysates immunoprecipitated with anti-Fas, blotted with anti-caspase-8; conditions: remark: other sources report otherwise
T1 chain: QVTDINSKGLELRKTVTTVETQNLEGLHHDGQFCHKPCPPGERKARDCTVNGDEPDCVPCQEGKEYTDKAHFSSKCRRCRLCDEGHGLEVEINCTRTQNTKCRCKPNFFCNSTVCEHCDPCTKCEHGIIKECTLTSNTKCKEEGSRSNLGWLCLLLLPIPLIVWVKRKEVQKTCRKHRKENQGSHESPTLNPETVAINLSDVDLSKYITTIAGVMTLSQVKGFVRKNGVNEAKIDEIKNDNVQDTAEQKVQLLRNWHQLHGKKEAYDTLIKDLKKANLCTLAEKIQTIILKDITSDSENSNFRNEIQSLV

[2] = target: T2, Flag-tagged p45 (mouse) (UniProt Q8CJ26); experiment: co-IP; HEK293 cells with Flag-p45 and V5-tagged FADD constructs; lysis in RIPA buffer (150 mM NaCl, 1% NP-40, 0.5% DOC, 0.1% SDS, 50 mM Tris pH 8.0); immunoprecipitated with anti-Flag M2, blotted with anti-V5
T2 sequence: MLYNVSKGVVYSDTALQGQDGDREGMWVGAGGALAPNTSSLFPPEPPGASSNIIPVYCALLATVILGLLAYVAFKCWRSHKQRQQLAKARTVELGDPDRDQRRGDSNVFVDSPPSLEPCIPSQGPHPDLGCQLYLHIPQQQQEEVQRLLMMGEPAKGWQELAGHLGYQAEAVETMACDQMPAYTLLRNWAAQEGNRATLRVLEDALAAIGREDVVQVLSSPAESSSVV

[3] = target: T3, p45 of Thy1-p45 transgenic mice (full-length mouse p45 with an N-terminal Flag tag) (mouse) (UniProt Q8CJ26); experiment: co-IP; brain protein extracts of Thy1-p45 transgenic mice; immunoprecipitated with anti-p45 or anti-FADD, blotted with anti-FADD or anti-p45, respectively
T3 sequence: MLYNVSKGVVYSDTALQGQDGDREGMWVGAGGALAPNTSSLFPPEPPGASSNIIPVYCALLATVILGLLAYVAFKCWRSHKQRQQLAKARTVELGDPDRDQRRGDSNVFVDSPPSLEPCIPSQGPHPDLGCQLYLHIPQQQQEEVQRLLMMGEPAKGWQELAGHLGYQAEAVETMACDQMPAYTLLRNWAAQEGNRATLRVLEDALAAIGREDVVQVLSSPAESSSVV

[4] = target: T3, p45 of Thy1-p45 transgenic mice (full-length mouse p45 with an N-terminal Flag tag) (mouse); experiment: co-IP; data not shown; spinal cord extracts, otherwise as for the brain extracts

- binding [1]: binds
B1: caspase-8 in MCF7-hFAS cells, Q14790 1-479 (enzyme)
chain: MDFSRNLYDIGEQLDSEDLASLKFLSLDYIPQRKQEPIKDALMLFQRLQEKRMLEESNLSFLKELLFRINRLDLLITYLNTRKEEMERELQTPGRAQISAYRVMLYQISEEVSRSELRSFKFLLQEEISKCKLDDDMNLLDIFIEMEKRVILGEGKLDILKRVCAQINKSLLKIINDYEEFSKERSSSLEGSPDEFSNGEELCGVMTISDSPREQDSESQTLDKVYQMKSKPRGYCLIINNHNFAKAREKVPKLHSIRDRNGTHLDAGALTTTFEELHFEIKPHDDCTVEQIYEILKIYQLMDHSNMDCFICCILSHGDKGIIYGTDGQEAPIYELTSQFTGLKCPSLAGKPKVFFIQACQGDNYQKGIPVETDSEEQPYLEMDLSSPQTRYIPDEADFLLGMATVNNCVSYRNPAEGTWYIQSLCQSLRERCPRGDDILTILTEVNYEVSNKDDKKNMGKQMPQPTFTLRKKLVFPSD

- binding [2]: binds
B2: V5-tagged full length FADD (mouse, WT) (protein, UniProt Q61160 1-205)
chain: MDPFLVLLHSLSGSLSGNDLMELKFLCRERVSKRKLERVQSGLDLFTVLLEQNDLERGHTGLLRELLASLRRHDLLQRLDDFEAGTATAAPPGEADLQVAFDIVCDNVGRDWKRLARELKVSEAKMDGIEEKYPRSLSERVRESLKVWKNAEKKNASVAGLVKALRTCRLNLVADLVEEAQESVSKSENMSPVLRDSTVSSSETP

- binding [3]: binds
- binding [4]: binds
B3: FADD in mouse brain and spinal cord extracts (protein, UniProt Q61160 1-205)
chain: MDPFLVLLHSLSGSLSGNDLMELKFLCRERVSKRKLERVQSGLDLFTVLLEQNDLERGHTGLLRELLASLRRHDLLQRLDDFEAGTATAAPPGEADLQVAFDIVCDNVGRDWKRLARELKVSEAKMDGIEEKYPRSLSERVRESLKVWKNAEKKNASVAGLVKALRTCRLNLVADLVEEAQESVSKSENMSPVLRDSTVSSSETP
